Laboratory results published in patent US5776720A, “Assay reagent” (priority 1995, dated 1998).
The name of at least one read-out is uncertain. Numbered stars: 1 amine (or outer) side, 2 acyl side, 3 side chain; on linkers, the order of the positions; unused ones are H or OH. Bridge positions count the residues as written; N and C are the ends. Peptide text beside a SMILES is read from it. I, II: the chains in the order shown. Rhodamine110 = O=C1OC2(c3ccc(N[*:1])cc3Oc3cc(N[*:2])ccc32)c2ccccc21

Legend:
Format in all cases: cell-based, human
Set-up in all cases: unit not given here
Settings in all cases: normal donors
monocytes = assay: Normal leukocyte enzyme activity (Table 3A), monocytes
From the text: (§1) The measured fluorescence intensity can be converted from mean channel fluorescence (in peak or integrated mode) to MESF (molecules of equivalent soluble fluorochrome, Flow Cytometry Standards Corp. , San Juan, Puerto Rico) or International Units of hydrolysis per cell. A normal range of enzyme activity is established by assaying males and females in sufficient quantity to characterize the population levels statistically.
(§2) A normal in house adult donor pool was drawn, recording sex and determining that no known disease state was present at the time of sample draw. Criteria for rejecting samples included patients under medication, patients with infection or inflammation of any type, colds and flu as well as any known medical illness such as cancer, heart ailment and high blood pressure. A donor list of 75 patients has been developed and a mean and 2 sd range established. A subgroup of "super normals" was developed from this list by examining the 75 patients to determine which group falls closest to the mean for all enzymes in all cell types tested. These patients were used as the "wellness index" or best group of "normalcy" patients. If a study required the use of children or newborns then this same format was used to develop a data base for these age groups.

lymphocytes = assay: Normal leukocyte enzyme activity (Table 3A), lymphocytes
From the text: as §1, §2

granulocytes = assay: Normal leukocyte enzyme activity (Table 3A), granulocytes
From the text: as §1, §2

Compound | NORMAL LEUKOCYTE ENZYME ACTIVITY, MONOS Mean (monocytes) | NORMAL LEUKOCYTE ENZYME ACTIVITY, LYMPHS Mean (lymphocytes) | NORMAL LEUKOCYTE ENZYME ACTIVITY, GRANS Mean (granulocytes)
CC(=O)Oc1ccc2c(c1)Oc1cc(OC(C)=O)ccc1C21OC(=O)c2ccccc21 [FDA, fluorescein diacetate, reference compound] | 56.25 | – | –
C[C@H](NC(=O)CNC(=O)[C@H](Cc1ccccc1)NC(=O)CN)C(=O)Nc1ccc2c(c1)Oc1cc(NC(=O)[C@H](C)NC(=O)CNC(=O)[C@H](Cc3ccccc3)NC(=O)CN)ccc1C21OC(=O)c2ccccc21 [GFGA, (Gly-Phe-Gly-Ala)2 Rho 110] (I: H-GFGA / II: H-GFGA; linker I:C-II:C via Rhodamine110) | – | 0.36 | 1.00
